# Source: the supplement of paper PMC4604168 (melanoma cell lines)
# The list shows a part of the results. Repeats are few or missing, and single values can be far off.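 Cells were imaged in 1,536-well plates, and nuclei stained with an antibody against cleaved PARP were counted against all DNA-stained nuclei to give the apoptosis fraction. Screening doses were chosen to leave most cells alive, and resting and induced cleaved-PARP levels differ strongly between cell lines.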
# Experiments:
# Experiment in all cases: cleaved PARP positive nuclei fraction relative to DMSO control; melanoma cells; higher = more apoptosis
# Conditions in all cases: library dose: low library concentration; 72 h
# WM115 = test system: WM115
# WM1716 = test system: WM1716
# WM1745 = test system: WM1745
# WM3526 = test system: WM3526
# WM3619 = test system: WM3619
# WM451Lu = test system: WM451Lu
SMILES,cleaved PARP positive nuclei fraction (WM115),cleaved PARP positive nuclei fraction (WM1716),cleaved PARP positive nuclei fraction (WM1745),cleaved PARP positive nuclei fraction (WM3526),cleaved PARP positive nuclei fraction (WM3619),cleaved PARP positive nuclei fraction (WM451Lu)
"CC1(C)NC(=O)N(c2ccc([N+](=O)[O-])c(C(F)(F)F)c2)C1=O [nilutamide] + COc1cc2c(Oc3ccc4[nH]c(C)cc4c3F)ncnc2cc1OCCCN1CCCC1 [cediranib] (first compound 1 µM, partner dose 0.4 µM)",51.5%,79.2%,87.9%,56%,90.6%,93.7%
"Cn1cncc1[C@@](N)(c1ccc(Cl)cc1)c1ccc2c(c1)c(-c1cccc(Cl)c1)cc(=O)n2C [tipifarnib] + COc1cc2ncnc(Nc3ccc(Oc4ccccc4)cc3)c2cc1OC [SrcI1] (first compound 0.01 µM, partner dose 2 µM)",462%,41.9%,116%,90.8%,98.5%,63.4%
"Cc1cc(N2CCOCC2)cc2[nH]c(-c3c(NC[C@@H](O)c4cccc(Cl)c4)cc[nH]c3=O)nc12 + N#Cc1c(O)c2c(-c3ccc(-c4ccccc4O)cc3)csc2[nH]c1=O [A769662] (first compound 0.2 µM, partner dose 2 µM)",170%,129%,115%,130%,68%,114%
"Clc1ccc(Nc2nnc(Cc3ccncc3)c3ccccc23)cc1 [vatalanib] + COc1ccc(-c2ccc3c(N4CCOCC4)nc(N4C[C@@H](C)O[C@@H](C)C4)nc3n2)cc1CO [KU0063794] (first compound 2 µM, partner dose 0.02 µM)",118%,183%,97.7%,64.7%,77.1%,143%
"Cc1cc(N2CCOCC2)cc2[nH]c(-c3c(NC[C@@H](O)c4cccc(Cl)c4)cc[nH]c3=O)nc12 + O=C(O)c1ccc(-c2c[nH]c3ncc(-c4ccccc4)cc23)cc1C1CCCC1 [GSK650394] (first compound 0.2 µM, partner dose 0.16 µM)",76.3%,92.3%,123%,65%,108%,97%
"Cn1cncc1[C@@](N)(c1ccc(Cl)cc1)c1ccc2c(c1)c(-c1cccc(Cl)c1)cc(=O)n2C [tipifarnib] + COc1ccc(-c2ccc3c(N4CCOCC4)nc(N4C[C@@H](C)O[C@@H](C)C4)nc3n2)cc1CO [KU0063794] (first compound 0.01 µM, partner dose 0.02 µM)",133%,57%,109%,75.4%,106%,69.8%
"C[C@]1(c2nc3c(C(N)=O)cccc3[nH]2)CCCN1 [Veliparib] + COc1cc(Nc2ncc(F)c(Nc3ccc4c(n3)NC(=O)C(C)(C)O4)n2)cc(OC)c1OC [Tamatinib] (first compound 1.4 µM, partner dose 0.4 µM)",121%,127%,122%,42.5%,76.9%,104%
"C[C@@H]1CCN(C(=O)CC#N)C[C@@H]1N(C)c1ncnc2[nH]ccc12 + Cn1cncc1[C@@](N)(c1ccc(Cl)cc1)c1ccc2c(c1)c(-c1cccc(Cl)c1)cc(=O)n2C [tipifarnib] (first compound 1 µM, partner dose 0.01 µM)",42.7%,68.5%,102%,110%,125%,174%
"Cc1nc(Nc2ncc(C(=O)Nc3c(C)cccc3Cl)s2)cc(N2CCN(CCO)CC2)n1 [dasatanib] + COC(=O)c1sccc1S(=O)(=O)Nc1ccc(Nc2ccccc2)cc1OC [GSK0660] (first compound 0.004 µM, partner dose 1 µM)",108%,85.8%,164%,139%,82.6%,94.9%
"Cn1c(Nc2ccc(C(F)(F)F)cc2)nc2cc(Oc3ccnc(-c4ncc(C(F)(F)F)[nH]4)c3)ccc21 + C[C@]1(c2nc3c(C(N)=O)cccc3[nH]2)CCCN1 [Veliparib] (first compound 0.08 µM, partner dose 1.4 µM)",625%,164%,147%,43.3%,177%,220%
"CC(=O)c1c(C)c2cnc(Nc3ccc(N4CCNCC4)cn3)nc2n(C2CCCC2)c1=O [palbociclib] + CC(C)CCN1c2nc(Nc3cc(F)c(O)c(F)c3)ncc2N(C)C(=O)C1C [BID1870] (first compound 0.04 µM, partner dose 0.2 µM)",131%,209%,108%,148%,19.6%,404%
"Cc1nc(Nc2ncc(C(=O)Nc3c(C)cccc3Cl)s2)cc(N2CCN(CCO)CC2)n1 [dasatanib] + CC(C)(C)c1cnc(CSc2cnc(NC(=O)C3CCNCC3)s2)o1 [SNS-032] (first compound 0.004 µM, partner dose 0.01 µM)",113%,226%,245%,51.5%,92.4%,501%
"COc1cc(Nc2ncc(F)c(Nc3ccc4c(n3)NC(=O)C(C)(C)O4)n2)cc(OC)c1OC [Tamatinib] + O=C(O)C(=O)Nc1sc2c(c1C(=O)O)CCNC2 [TCS401] (first compound 0.4 µM, partner dose 1.66667 µM)",104%,28.5%,173%,92.6%,89%,61.1%

# Record cards (already shown). Values in the order: cleaved PARP positive nuclei fraction (WM115) | cleaved PARP positive nuclei fraction (WM1716) | cleaved PARP positive nuclei fraction (WM1745) | cleaved PARP positive nuclei fraction (WM3526) | cleaved PARP positive nuclei fraction (WM3619) | cleaved PARP positive nuclei fraction (WM451Lu)
# C[C@]1(c2nc3c(C(N)=O)cccc3[nH]2)CCCN1 [Veliparib] + COc1cc(Nc2ncc(F)c(Nc3ccc4c(n3)NC(=O)C(C)(C)O4)n2)cc(OC)c1OC [Tamatinib] (first compound 1.4 µM, partner dose 0.4 µM) is entered as 121% | 127% | 122% | 42.5% | 76.9% | 104%
# Cn1cncc1[C@@](N)(c1ccc(Cl)cc1)c1ccc2c(c1)c(-c1cccc(Cl)c1)cc(=O)n2C [tipifarnib] + COc1cc2ncnc(Nc3ccc(Oc4ccccc4)cc3)c2cc1OC [SrcI1] (first compound 0.01 µM, partner dose 2 µM) is entered as 462% | 41.9% | 116% | 90.8% | 98.5% | 63.4%
